Source: PubChem BioAssay AID602196 (INSERM, 2012)
Test: 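Genes whose knock-down alters cisplatin killing of lung cancer cells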. System: human A549 lung cancer cells. Knock-down reagent: siRNA pair against human genes. Timing: 48 h transfection before cisplatin; time from cisplatin to read-out not stated. Challenge: cisplatin at a dose killing half of control-siRNA cells; exact dose and duration not given. Read-out: 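Cisplatin cell death as a shift from the 50% death seen with control siRNA; siRNAs toxic or growth-blocking alone scored 0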. Direction: two-siRNA summed score (-2 to +2): higher = both siRNAs protect from cisplatin killing; -2 means both sensitise; mean protection from cisplatin (shift in death) and protection from cisplatin (shift in death), siRNA C and protection from cisplatin (shift in death), siRNA D: higher = protection from cisplatin killing. Hit rule: 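Each siRNA scores 0 if harmful alone by LDH or WST-1, otherwise +1 if it reduces and -1 if it increases cisplatin killing; a gene is active when both siRNAs agree (sum +2 or -2)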. Calls: active = both siRNAs shift cisplatin killing the same way; inactive = no consistent shift, or siRNA harmful alone.
The deposit covers about 23,000 reagents; shown is a random part of them. In the full data, 455 (2%) are marked active. 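Active includes both protection and sensitisation; some change values fall well beyond the stated -50 to +50 range.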 Reagents against one gene are numbered here. Reagent sequences are not shown. The record does not give: the amount of reagent.

gene	reagent no.	two-siRNA summed score (-2 to +2)	mean protection from cisplatin (shift in death) (%)	protection from cisplatin (shift in death), siRNA C (%)	protection from cisplatin (shift in death), siRNA D (%)	outcome
ITGB1BP2 (GeneID 26548)	1	0	2.3	8.6	-4	inactive
SIAE (GeneID 54414)	1	0	-6.2	-3.4	-9	inactive
LOC400647	1	0	0.6	-9	10.3	inactive
LOC90133	1	1	11.1	9.5	12.7	inactive
RACGAP1 (GeneID 29127)	1	-1	-11.7	-28.3	4.8	inactive
SMIM43 (GeneID 132332)	1	0	0	7.4	-7.5	inactive
RER1 (GeneID 11079)	1	0	10.9	22.1	-0.4	inactive
CHKA (GeneID 1119)	1	0	-14.2	-27.2	-1.3	inactive
MAP3K6 (GeneID 9064)	1	1	13.2	2.6	23.9	inactive
LOC441909	1	0	12.9	12.5	13.2	inactive
ZSWIM2 (GeneID 151112)	1	0	-5	-0.5	-9.5	inactive
PCDHB6 (GeneID 56130)	1	1	8.1	18.7	-2.5	inactive
C20orf96 (GeneID 140680)	1	-1	-3.9	-18.4	10.7	inactive
HTR1E (GeneID 3354)	1	0	-8.3	-2	-14.5	inactive
ANKRD40 (GeneID 91369)	1	0	16.2	21.6	10.9	inactive
LOC389271	1	1	20.5	15.6	25.5	inactive
COL13A1 (GeneID 1305)	1	-1	-5.7	-9.6	-1.7	inactive
COL13A1 (GeneID 1305)	2	-1	-4.8	-10.7	1	inactive
COL13A1 (GeneID 1305)	3	-1	-3.3	-10.7	4.1	inactive
COL13A1 (GeneID 1305)	4	0	-3.9	-6.5	-1.4	inactive
COL13A1 (GeneID 1305)	5	0	-3.1	-7.1	1	inactive
COL13A1 (GeneID 1305)	6	0	-2.8	-6.4	0.7	inactive
COL13A1 (GeneID 1305)	7	0	-2.7	-6.8	1.4	inactive
COL13A1 (GeneID 1305)	8	0	-2.4	-5.7	0.9	inactive
COL13A1 (GeneID 1305)	9	0	-2.2	-6.8	2.5	inactive
COL13A1 (GeneID 1305)	10	0	-2	-6	1.9	inactive
COL13A1 (GeneID 1305)	11	0	-1.8	-7.3	3.8	inactive
COL13A1 (GeneID 1305)	12	0	-1.1	-3.4	1.3	inactive
COL13A1 (GeneID 1305)	13	0	-1.1	-6.6	4.5	inactive
COL13A1 (GeneID 1305)	14	1	5.9	0.3	11.5	inactive
COL13A1 (GeneID 1305)	15	1	9.5	3	15.9	inactive
COL13A1 (GeneID 1305)	16	1	10.6	1.6	19.6	inactive
COL13A1 (GeneID 1305)	17	1	11.1	3.1	19	inactive
COL13A1 (GeneID 1305)	18	1	12.8	8.2	17.3	inactive
COL13A1 (GeneID 1305)	19	1	14.3	7.8	20.9	inactive
LOC440027	1	0	15.8	13.3	18.2	inactive
LOC399747	1	0	8.6	12.4	4.8	inactive
VAT1L (GeneID 57687)	1	0	-2.9	-15.2	9.4	inactive
RTN4RL2 (GeneID 349667)	1	-1	-11.2	-0.3	-22	inactive
